PMC6447525
No constants are given. Whether binding was seen depends on the method and setting. In cells and extracts the contact can be indirect. Some binding calls cover weakened binding; strength is not graded here. Where a sequence is shown, tags or fusion partners need not be part of it.

Target: T1, NESG1 (cilia and flagella-associated protein 45), MYC-tagged (human) (UniProt Q9UL16)
T1 sequence: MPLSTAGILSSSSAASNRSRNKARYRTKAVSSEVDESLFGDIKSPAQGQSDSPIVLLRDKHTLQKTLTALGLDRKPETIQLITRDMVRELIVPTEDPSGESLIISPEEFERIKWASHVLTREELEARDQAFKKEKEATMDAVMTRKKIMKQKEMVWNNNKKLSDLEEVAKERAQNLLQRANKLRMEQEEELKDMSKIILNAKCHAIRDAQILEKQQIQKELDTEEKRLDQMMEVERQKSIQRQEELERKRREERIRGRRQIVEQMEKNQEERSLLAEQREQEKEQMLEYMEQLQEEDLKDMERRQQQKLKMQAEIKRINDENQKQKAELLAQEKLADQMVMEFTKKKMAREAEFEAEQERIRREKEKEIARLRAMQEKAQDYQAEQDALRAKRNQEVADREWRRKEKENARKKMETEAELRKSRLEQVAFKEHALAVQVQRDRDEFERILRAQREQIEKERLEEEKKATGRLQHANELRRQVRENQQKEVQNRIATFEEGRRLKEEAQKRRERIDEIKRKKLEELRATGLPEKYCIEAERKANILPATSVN
Experiment: co-IP; cells co-transfected with HA-VPS33B and MYC-NESG1 plasmids; Pierce Co-Immunoprecipitation Kit; 3000 ug total protein in 500 uL supernatant with 10 ug anti-HA, anti-MYC or anti-IgG antibodies, 12 h, 4 °C; western blot; anti-IgG as negative control

binding: binds
B1: vacuolar protein sorting 33B (VPS33B), HA-tagged (protein, UniProt Q9H267 1-617)
chain: MAFPHRPDAPELPDFSMLKRLARDQLIYLLEQLPGKKDLFIEADLMSPLDRIANVSILKQHEVDKLYKVENKPALSSNEQLCFLVRPRIKNMRYIASLVNADKLAGRTRKYKVIFSPQKFYACEMVLEEEGIYGDVSCDEWAFSLLPLDVDLLSMELPEFFRDYFLEGDQRWINTVAQALHLLSTLYGPFPNCYGIGRCAKMAYELWRNLEEEEDGETKGRRPEIGHIFLLDRDVDFVTALCSQVVYEGLVDDTFRIKCGSVDFGPEVTSSDKSLKVLLNAEDKVFNEIRNEHFSNVFGFLSQKARNLQAQYDRRRGMDIKQMKNFVSQELKGLKQEHRLLSLHIGACESIMKKKTKQDFQELIKTEHALLEGFNIRESTSYIEEHIDRQVSPIESLRLMCLLSITENGLIPKDYRSLKTQYLQSYGPEHLLTFSNLRRAGLLTEQAPGDTLTAVESKVSKLVTDKAAGKITDAFSSLAKRSNFRAISKKLNLIPRVDGEYDLKVPRDMAYVFGGAYVPLSCRIIEQVLERRSWQGLDEVVRLLNCSDFAFTDMTKEDKASSESLRLILVVFLGGCTFSEISALRFLGREKGYRFIFLTTAVTNSARLMEAMSEVKA
